# Measurements from paper PMC11231340, “Werner helicase interacting protein 1 contributes to G-quadruplex processing in human cells”.
# No constants are given. Whether binding was seen depends on the method and setting. In cells and extracts the contact can be indirect. Some binding calls cover weakened binding; strength is not graded here. Sequences can lack the tags named with a protein.
# T1: V2-WRNIP1 (human Werner helicase interacting protein 1 fused to the C-terminal fragment of VENUS YFP) (human) (UniProt Q96S55)
# T1 sequence: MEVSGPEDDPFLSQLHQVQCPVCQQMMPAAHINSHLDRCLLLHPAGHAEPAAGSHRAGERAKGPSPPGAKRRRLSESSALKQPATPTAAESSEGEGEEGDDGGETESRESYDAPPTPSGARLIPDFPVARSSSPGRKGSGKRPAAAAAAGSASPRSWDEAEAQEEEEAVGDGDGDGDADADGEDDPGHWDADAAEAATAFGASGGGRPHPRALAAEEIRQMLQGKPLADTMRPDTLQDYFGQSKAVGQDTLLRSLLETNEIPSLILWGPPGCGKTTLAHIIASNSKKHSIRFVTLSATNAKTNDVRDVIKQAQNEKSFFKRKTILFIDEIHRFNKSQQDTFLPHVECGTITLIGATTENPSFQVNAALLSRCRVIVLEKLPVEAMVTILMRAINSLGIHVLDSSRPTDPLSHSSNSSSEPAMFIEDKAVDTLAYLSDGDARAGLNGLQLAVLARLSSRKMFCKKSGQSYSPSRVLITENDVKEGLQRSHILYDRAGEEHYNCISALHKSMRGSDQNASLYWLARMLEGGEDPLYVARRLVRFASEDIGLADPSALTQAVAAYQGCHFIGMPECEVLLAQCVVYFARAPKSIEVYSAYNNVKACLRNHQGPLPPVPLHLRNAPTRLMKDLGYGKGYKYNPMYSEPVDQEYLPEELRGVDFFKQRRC
# Biological target: T1, V2-WRNIP1 (human Werner helicase interacting protein 1 fused to the C-terminal fragment of VENUS YFP) (human)
# Experiment: split reporter; split VENUS protein fragment complementation in HeLa cells; V1-PIF1 and V2-WRNIP1 plasmids transfected 1:1, cells fixed 48 h after transfection, confocal microscopy; foci lost on co-transfection of shDNA against WRNIP1 or PIF1
binder,measurement,value
"V1-PIF1 (human PIF1 DNA helicase fused to the N-terminal fragment of VENUS YFP) (enzyme, UniProt Q9H611 1-641) MLSGIEAAAGEYEDSELRCRVAVEELSPGGQPRRRQALRTAELSLGRNERRELMLRLQAPGPAGRPRCFPLRAARLFTRFAEAGRSTLRLPAHDTPGAGAVQLLLSDCPPDRLRRFLRTLRLKLAAAPGPGPASARAQLLGPRPRDFVTISPVQPEERRLRAATRVPDTTLVKRPVEPQAGAEPSTEAPRWPLPVKRLSLPSTKPQLSEEQAAVLRAVLKGQSIFFTGSAGTGKSYLLKRILGSLPPTGTVATASTGVAACHIGGTTLHAFAGIGSGQAPLAQCVALAQRPGVRQGWLNCQRLVIDEISMVEADLFDKLEAVARAVRQQNKPFGGIQLIICGDFLQLPPVTKGSQPPRFCFQSKSWKRCVPVTLELTKVWRQADQTFISLLQAVRLGRCSDEVTRQLQATASHKVGRDGIVATRLCTHQDDVALTNERRLQELPGKVHRFEAMDSNPELASTLDAQCPVSQLLQLKLGAQVMLVKNLSVSRGLVNGARGVVVGFEAEGRGLPQVRFLCGVTEVIHADRWTVQATGGQLLSRQQLPLQLAWAMSIHKSQGMTLDCVEISLGRVFASGQAYVALSRARSLQGLRVLDFDPMAVRCDPRVLHFYATLRRGRSLSLESPDDDEAASDQENMDPIL",binding,binds
